Data on 13 substances can be found in US20130345397 (published 2013).

A short description of series [1]: general procedure: Fmoc solid-phase peptide synthesis; Wang resin; HATU-DIPEA. The note with it: whole synthesis, RP-HPLC (Agilent, Vydac C18 analytical column), scale 200 umol.
The nature of series [2]: general procedure: Fmoc solid-phase peptide synthesis; HATU-DIPEA. The note with it: whole synthesis; for crude HPLC purity / final HPLC purity: RP-HPLC (Agilent, Vydac C18 analytical column).
Series [3] in a line: general procedure: Fmoc solid-phase peptide synthesis; Fmoc-Gly-Wang resin; HATU-DIPEA. The note with it: whole synthesis, RP-HPLC (Agilent, Vydac C18 analytical column), scale 200 umol.
Series [4] can be described thus: general procedure: Fmoc solid-phase peptide synthesis; Fmoc-Gly-PEG-PS resin; HATU-DIPEA. Conditions: whole synthesis, RP-HPLC (Agilent, Vydac C18 analytical column), scale 200 umol.
Series [5] is described as follows: general procedure: Fmoc solid-phase peptide synthesis; Fmoc-Asp(OtBu)-Wang resin; HATU-DIPEA. The note with it: whole synthesis, RP-HPLC (Agilent, Vydac C18 analytical column), scale 100 umol.
A short description of series [6]: general procedure: Fmoc solid-phase peptide synthesis; Rink Amide resin; HATU-DIPEA. The note with it: whole synthesis, RP-HPLC (Agilent, Vydac C18 analytical column), scale 100 umol.
Series [7] can be described thus: general procedure: Fmoc solid-phase peptide synthesis; Fmoc-Asn(Trt)-PEG-PS; HATU-DIPEA. The note with it: whole synthesis, RP-HPLC (Agilent, Vydac C18 analytical column), scale 0.20 mmol.

Regarding “AgI-API-AgI-SL-c[Das-API]-SL-c[Das-API]-SLG”, the “crude HPLC purity” value in series [1] is recorded as 71%.
Turning to AgI-API-AgI-SL-c[Das-API]-SLG, in series [1], the “crude HPLC purity” value is reported as 89%.
Regarding “AgI-API-AgI-SR-c[Das-API]-SR-c[Das-API]-SRG”, the “crude HPLC purity” value in series [2] is recorded as 60%.
Consider AgI-API-AgI-SR-c[Das-API]-SRG, for which, in series [2], the “crude HPLC purity” value was found to be 75%.
Still for that read-out and setting: as for AgI-API-Nva-SLG, the figure is 94%; as for AgI-SL-AgI-API-Nva-SLG, 90%.
Agl-API-Agl-SLG: the “crude HPLC purity” value in series [3] was 92%.
For the substance “c[Das-API]-SL-c[Das-API]-SL-c[Das-API]-SLG”, in series [2], the isolated yield was determined as 3% and the “final HPLC purity” value is given as more than 99%.
On the same counts, the results for “c[Das-API]-SR-c[Das-API]-SR-c[Das-API]-SRG” are 2% and 90%.
Take “desA1-5-[A6,11]-Agl-[A7]-Cys(^tBu)-[A20]-Cys(Acm) Human Insulin Glargine A-chain”: the “crude HPLC purity” value in series [4] was found to be 70%.
“desA1-5-[A6,11]-Agl-[A7]-Cys(^tBu)-[A20]-Cys(Acm)-[A21]-Asp Human Insulin A-Chain”: the “crude HPLC purity” value in series [5] is recorded as 70%.
“desA1-5-[A6,11]-Agl-[A7]-Cys(^tBu)-[A20]-Cys(Acm)-[A21]-β-Asn Human Insulin A-Chain”: the “crude HPLC purity” value in series [6] is 85%.
Consider “desm-5-[A6,11]-Agl-[A7]-Cys(^tBu)-[A20]-Cys(Acm) Insulin A-chain”, for which the “crude HPLC purity” value in series [7] was 80%.
